# Measurements published in patent publication US6140490.
# Chains of the proteins cited; added tags and fusions are not shown. Chains listed by the source or under a name are the forms on record and can include a tag or linker.
# Complement C3 (Homo sapiens), one chain, as listed by the source, chain 1 of 2: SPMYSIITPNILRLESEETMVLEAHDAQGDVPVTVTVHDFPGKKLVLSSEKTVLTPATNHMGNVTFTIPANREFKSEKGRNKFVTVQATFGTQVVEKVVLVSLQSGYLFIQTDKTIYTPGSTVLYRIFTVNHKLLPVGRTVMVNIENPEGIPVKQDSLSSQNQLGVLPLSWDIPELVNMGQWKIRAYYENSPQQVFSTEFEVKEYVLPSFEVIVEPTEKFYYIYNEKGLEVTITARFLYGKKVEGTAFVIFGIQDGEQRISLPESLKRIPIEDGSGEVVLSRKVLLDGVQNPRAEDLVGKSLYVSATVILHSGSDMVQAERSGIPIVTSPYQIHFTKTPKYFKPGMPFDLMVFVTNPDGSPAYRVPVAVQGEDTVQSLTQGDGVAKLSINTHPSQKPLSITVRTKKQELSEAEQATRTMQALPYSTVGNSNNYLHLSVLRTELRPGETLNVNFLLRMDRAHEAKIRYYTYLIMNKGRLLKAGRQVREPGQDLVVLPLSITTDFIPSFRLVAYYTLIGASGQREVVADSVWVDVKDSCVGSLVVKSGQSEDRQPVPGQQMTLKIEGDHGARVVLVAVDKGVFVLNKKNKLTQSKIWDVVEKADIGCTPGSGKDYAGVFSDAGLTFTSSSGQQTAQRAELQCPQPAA
# Complement C5 (Homo sapiens), one chain, as listed by the source, chain 2 of 2: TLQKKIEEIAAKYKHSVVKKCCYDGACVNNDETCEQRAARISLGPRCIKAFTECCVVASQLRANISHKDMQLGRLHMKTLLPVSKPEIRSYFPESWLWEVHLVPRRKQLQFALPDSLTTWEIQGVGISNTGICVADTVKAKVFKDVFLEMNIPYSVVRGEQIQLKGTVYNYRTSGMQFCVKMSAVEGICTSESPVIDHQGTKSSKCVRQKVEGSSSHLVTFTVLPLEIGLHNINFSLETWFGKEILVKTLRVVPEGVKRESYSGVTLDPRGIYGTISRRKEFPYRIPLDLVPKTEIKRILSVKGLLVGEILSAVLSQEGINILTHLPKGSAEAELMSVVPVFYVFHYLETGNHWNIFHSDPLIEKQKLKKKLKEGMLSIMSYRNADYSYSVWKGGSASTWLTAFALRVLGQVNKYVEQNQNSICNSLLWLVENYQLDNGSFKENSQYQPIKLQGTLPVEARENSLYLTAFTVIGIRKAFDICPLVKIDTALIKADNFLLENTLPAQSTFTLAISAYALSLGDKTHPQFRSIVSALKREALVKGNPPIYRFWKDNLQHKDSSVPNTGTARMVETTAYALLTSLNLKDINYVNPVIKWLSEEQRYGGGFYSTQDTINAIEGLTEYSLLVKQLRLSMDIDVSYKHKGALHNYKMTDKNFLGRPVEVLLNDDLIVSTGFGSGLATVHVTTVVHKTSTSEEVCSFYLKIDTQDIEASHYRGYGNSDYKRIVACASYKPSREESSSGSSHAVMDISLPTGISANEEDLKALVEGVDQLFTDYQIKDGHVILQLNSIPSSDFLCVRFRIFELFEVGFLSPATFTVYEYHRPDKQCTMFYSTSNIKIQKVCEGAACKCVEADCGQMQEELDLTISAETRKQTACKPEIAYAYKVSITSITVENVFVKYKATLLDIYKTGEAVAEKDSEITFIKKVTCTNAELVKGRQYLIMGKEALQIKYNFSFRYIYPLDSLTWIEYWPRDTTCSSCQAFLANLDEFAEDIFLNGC
# Complement C5 (Homo sapiens), one chain, as listed by the source, chain 1 of 2: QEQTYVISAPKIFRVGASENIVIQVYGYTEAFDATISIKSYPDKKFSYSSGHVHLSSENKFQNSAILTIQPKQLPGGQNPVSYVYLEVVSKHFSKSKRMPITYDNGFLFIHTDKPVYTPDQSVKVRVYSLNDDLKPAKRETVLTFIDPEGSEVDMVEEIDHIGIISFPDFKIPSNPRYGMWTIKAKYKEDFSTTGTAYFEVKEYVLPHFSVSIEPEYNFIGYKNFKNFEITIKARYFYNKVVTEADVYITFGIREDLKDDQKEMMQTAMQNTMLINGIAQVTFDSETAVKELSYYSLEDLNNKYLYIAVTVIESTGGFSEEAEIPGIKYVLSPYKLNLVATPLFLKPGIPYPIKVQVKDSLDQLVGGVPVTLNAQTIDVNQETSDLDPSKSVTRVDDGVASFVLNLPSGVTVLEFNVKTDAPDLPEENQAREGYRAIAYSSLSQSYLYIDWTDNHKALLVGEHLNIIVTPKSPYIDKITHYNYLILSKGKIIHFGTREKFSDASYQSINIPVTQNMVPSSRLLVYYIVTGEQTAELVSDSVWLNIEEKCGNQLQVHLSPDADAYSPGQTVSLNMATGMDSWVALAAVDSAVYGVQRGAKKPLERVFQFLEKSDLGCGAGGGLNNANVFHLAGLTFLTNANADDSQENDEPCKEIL
# Complement C5 (Rattus norvegicus), one chain, as listed by the source, chain 1 of 2: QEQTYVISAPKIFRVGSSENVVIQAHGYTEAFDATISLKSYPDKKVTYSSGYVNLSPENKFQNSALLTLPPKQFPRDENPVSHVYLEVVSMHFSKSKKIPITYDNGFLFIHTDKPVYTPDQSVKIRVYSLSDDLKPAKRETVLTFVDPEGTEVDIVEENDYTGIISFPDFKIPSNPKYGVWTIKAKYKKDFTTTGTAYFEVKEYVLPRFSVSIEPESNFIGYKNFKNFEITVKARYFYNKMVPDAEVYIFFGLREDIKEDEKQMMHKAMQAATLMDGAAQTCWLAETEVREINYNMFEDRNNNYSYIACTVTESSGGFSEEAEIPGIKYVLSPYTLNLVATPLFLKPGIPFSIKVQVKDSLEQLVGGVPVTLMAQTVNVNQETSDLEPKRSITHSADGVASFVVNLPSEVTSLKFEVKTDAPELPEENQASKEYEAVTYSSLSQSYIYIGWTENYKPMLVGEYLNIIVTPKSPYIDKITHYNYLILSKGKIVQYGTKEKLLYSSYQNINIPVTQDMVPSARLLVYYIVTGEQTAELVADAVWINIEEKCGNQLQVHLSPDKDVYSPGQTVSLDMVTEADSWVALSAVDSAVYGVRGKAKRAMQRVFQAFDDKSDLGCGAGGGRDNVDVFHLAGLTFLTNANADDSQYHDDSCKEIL
# Complement C3 (Homo sapiens), one chain, as listed by the source, chain 2 of 2: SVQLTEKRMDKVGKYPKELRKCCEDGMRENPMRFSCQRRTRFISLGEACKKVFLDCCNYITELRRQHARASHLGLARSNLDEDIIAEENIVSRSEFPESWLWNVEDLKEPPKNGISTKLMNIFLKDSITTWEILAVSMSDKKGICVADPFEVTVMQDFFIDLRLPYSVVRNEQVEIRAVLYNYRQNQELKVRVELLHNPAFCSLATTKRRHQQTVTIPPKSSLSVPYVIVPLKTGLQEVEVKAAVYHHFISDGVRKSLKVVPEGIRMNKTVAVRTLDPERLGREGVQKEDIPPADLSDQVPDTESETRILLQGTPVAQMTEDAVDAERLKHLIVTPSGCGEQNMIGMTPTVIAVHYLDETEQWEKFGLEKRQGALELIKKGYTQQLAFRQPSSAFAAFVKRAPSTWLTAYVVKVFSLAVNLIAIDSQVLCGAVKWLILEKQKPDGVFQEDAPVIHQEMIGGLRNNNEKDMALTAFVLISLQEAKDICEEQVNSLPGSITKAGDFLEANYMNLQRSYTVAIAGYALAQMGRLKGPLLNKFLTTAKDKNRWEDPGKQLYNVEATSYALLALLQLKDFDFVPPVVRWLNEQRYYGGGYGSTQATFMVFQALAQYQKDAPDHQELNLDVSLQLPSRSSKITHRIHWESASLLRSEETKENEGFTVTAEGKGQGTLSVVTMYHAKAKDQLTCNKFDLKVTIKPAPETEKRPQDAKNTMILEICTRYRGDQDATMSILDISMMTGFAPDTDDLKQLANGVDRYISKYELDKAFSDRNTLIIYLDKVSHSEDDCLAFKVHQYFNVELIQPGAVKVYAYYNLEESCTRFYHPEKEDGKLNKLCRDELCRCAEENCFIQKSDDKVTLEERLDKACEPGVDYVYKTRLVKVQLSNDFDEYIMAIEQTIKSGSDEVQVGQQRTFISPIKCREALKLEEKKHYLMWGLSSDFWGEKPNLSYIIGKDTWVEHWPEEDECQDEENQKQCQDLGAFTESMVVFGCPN
# Complement C5 (Rattus norvegicus), one chain, as listed by the source, chain 2 of 2: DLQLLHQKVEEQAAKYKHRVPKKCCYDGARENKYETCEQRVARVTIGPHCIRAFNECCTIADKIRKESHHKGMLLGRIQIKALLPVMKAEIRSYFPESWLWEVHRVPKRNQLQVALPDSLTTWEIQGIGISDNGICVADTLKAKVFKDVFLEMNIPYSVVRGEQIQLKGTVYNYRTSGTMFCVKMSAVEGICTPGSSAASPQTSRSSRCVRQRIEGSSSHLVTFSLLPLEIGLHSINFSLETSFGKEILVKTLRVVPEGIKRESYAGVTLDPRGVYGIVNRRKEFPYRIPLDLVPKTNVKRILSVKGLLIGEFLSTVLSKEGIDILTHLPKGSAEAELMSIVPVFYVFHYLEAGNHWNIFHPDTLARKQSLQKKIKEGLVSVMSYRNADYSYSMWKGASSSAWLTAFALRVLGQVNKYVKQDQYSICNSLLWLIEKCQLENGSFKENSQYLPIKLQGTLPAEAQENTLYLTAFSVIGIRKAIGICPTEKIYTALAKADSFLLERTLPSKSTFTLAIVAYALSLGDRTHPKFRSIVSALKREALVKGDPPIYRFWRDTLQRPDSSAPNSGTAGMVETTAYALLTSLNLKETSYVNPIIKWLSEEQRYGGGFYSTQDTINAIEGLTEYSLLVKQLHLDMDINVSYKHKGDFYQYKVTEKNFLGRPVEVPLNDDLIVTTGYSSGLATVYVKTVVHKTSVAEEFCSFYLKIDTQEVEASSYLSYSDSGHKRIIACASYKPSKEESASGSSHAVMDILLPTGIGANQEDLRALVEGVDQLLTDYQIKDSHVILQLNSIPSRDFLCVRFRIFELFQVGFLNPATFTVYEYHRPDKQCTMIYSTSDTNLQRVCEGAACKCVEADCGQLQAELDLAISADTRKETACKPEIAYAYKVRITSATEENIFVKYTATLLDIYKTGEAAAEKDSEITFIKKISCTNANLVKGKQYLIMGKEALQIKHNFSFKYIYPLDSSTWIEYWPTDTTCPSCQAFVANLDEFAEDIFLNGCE
# For some of these results: The exact form of at least one protein or probe is not confirmed.
# Tested on: Complement C5 (Homo sapiens)
# Assay: inhibition of the protein
# Conditions: 2'-F C and U; Group I totally inhibits hemolysis, 1:40 human serum, 37 C; purified native protein; protein details: Quidel; dose not given here
row,Sequence,functional effect of the aptamer
1,GGGAGGACGAUGCGGUCUCAUGCGUCGAGUGUGAGUUUAACUGCGUCAGACGACUCGCCCGA [K7],active

# Same assay, conditions: 2'-F C and U; Group I totally inhibits hemolysis, 1:40 human serum, 37 C; purified native protein; protein details: Quidel; label: 32P; dose not given here
row,Sequence,functional effect of the aptamer
1,GGGAGGACGAUGCGGUCCGGCGCGCUGAGUGCCGGUUAUCCUCGUCAGACGACUCGCCCGA [E5c/E11],active
2,GGGAGGACGAUGCGGUCCGGCGCGCUGAGUGCCGGUUUAUCCUCGUCAGACGACUCGCCCGA [A6],active
3,GGGAGGACGAUGCGGUCUCAUGCGCCGAGUGUGAGUUUACCUUCGUCAGACGACUCGCCCGA [F8],active

# Same assay, conditions: 2'-F C and U; inhibits total hemolytic complement activity; purified native protein; protein details: Quidel; dose not given here
row,Sequence,functional effect of the aptamer
1,GACGAUGCGGUCUCAUGCGUCGAGUGUGAGUUUACCUUCGUC [truncated C5 ligand (FIG. 3)],active

# Tested on: Complement C1q (in serum)
# Assay: activity assay
# Conditions: PS; complement activation ELISA; C4d printed as -7.1; C1q dependence only suggested; protein in an extract; single-stranded DNA
row,Sequence,functional effect
1,GGCGGGGCTACGTACCGGGGCTTTGTAAAACCCCGCC [phosphorothioate oligonucleotide SEQ ID NO:156],32.4 µg Bb

# Tested on: Complement C5 (Homo sapiens)
# Assay: filter binding
# Conditions: 2'-F C and U; MgPBS, 37 C; range for the ligands; purified native protein; protein details: Quidel; label: 32P
row,Sequence,binding result
1,GGGAGGACGAUGCGGUCCGGCGCGCUGAGUGCCGGUUAUCCUCGUCAGACGACUCGCCCGA [E5c/E11],binds
2,GGGAGGACGAUGCGGUCCGGCGCGCUGAGUGCCGGUUUAUCCUCGUCAGACGACUCGCCCGA [A6],binds
3,GGGAGGACGAUGCGGUCUCAUGCGCCGAGUGUGAGUUUACCUUCGUCAGACGACUCGCCCGA [F8],binds
4,GGGAGGACGAUGCGGUCUCAUGCGUCGAGUGUGAGUUUACCUUCGUCAGACGACUCGCCCGA [C6],binds
5,GGGAGGACGAUGCGGUGAGCGUGUAAAACGGUUUCGAUAGAGCCUCAGACGACUCGCCCGA [C9],binds
6,GGGAGGAGGAUCGGUGUUCAGCAUUCAGAUCUUCAGACGACUCGCCCGA [E4],binds

# Tested on: Complement C5 (Homo sapiens)
# Assay: SELEX
# Conditions: 2'-F C and U; Group I; purified native protein; protein details: Quidel
row,Sequence,selection result
1,GGGAGGACGAUGCGGUCGGAUGCGCCGAGUCUCCGUUUACCUUCGUCAGACGACUCGCCCGA [h1],selected
2,GGGAGGACGAUGCGGUCUCAUGCGUCGAGUGUGAGUUUAACUGCGUCAGACGACUCGCCCGA [K7],selected
3,GGGAGGACGAUGCGGUCUGCUACGCUGAGUGGCUGUUUACCUUCGUCAGACGACUCGCCCGA [g7],selected

# Same assay, conditions: 2'-F C and U; Group II; purified native protein; protein details: Quidel
row,Sequence,selection result
1,GGAGGGCGAUGGGGUGAGCGUGUAAAAGGUUGCGAUAGAGCCUCAGACGACUCGCCCGA [J1c],selected
2,GGGAGGACGAUGCGGACGAAGAAGGGGGUGGAGGAGUUUCGUGCUCAGACGACUCGCCCGA [g10],selected
3,GGGAGGACGAUGCGGACGAAGAAGGUGGUGGAGGAGUUUCGUGCUCAGACGACUCGCCCGA [h11],selected
4,GGGAGGACGAUGCGGAGGGUUCUUUUCAUCUUCUUUCUUUCCCCUCAGACGACUCGCCCGA [e8x],selected
5,GGGAGGACGAUGCGGGAGUUGUUCGGCAUUUAGAUCUCCGCUCCCUCAGACGACUCGCCCGA [g9],selected
6,GGGAGGACGAUGCGGGCAAAGUUCGGCAUUCAGAUCUCCAUGCCCUCAGACGACUCGCCCGA [f7],selected
7,GGGAGGACGAUGCGGGGCUUCUCACAUAUUCUUCUCUUUCCCCGUCAGACGACUCGCCCGA [E9c],selected
8,GGGAGGACGAUGCGGGUAUCUUAUCUUGUUUUCGUUUUUCUGCCCUCAGACGAUCGCCCGA [d6],selected
9,GGGAGGACGAUGCGGUGAGCGCGUAUAGCGGUUUCGAUAGAGCCUCAGACGACUCGCCCGA [h2],selected
10,GGGAGGACGAUGCGGUGAGCGCGUAUAGCGGUUUCGAUAGAGCUGCGUCAGACGACUCGCCCGA [f11],selected
11,GGGAGGACGAUGCGGUGAGCGUGGCAAACGGUUUCGAUAGAGCCUCAGACGACUCGCCCGA [f9],selected
12,GGGAGGACGAUGCGGUGAGCGUGGCAAACGGUUUCGAUAGAGCCUCAGACGACUCGCCCGA [h6],selected
13,GGGAGGACGAUGCGGUGAGCGUGUAAAACGGUUUCGAUAGAGCCUCAGACGACUCGCCCGA [h8],selected
14,GGGAGGACGAUGCGGUGGGCGUCAGCAUUUCGAUCUUCGGCACCUCAGACGACUCGCCCGA [C12],selected
15,GGGAGGACGAUGCGGUGUUCACCAUUCAGAUCUUCACGUGUCGUCAGACGACUCGCCCGA [f6],selected
16,GGGAGGACGAUGCGGUUUCGAUAGAGACUUACAGUUGAGCGCGGUCAGACGACUCGCCCGA [f4],selected
17,GGGAGGACGAUGCGGUUUGUGAUUUGGAAGUGGGGGGGAUAGGGUCAGACGACUCGCCCGA [d3],selected
18,GGGAGGACGAUGCUGUUCAGCAUUCAGAUCUUCACGUGUGUCAGACGACUCGCCCGA [d9],selected

# Tested on: Complement C3 (Homo sapiens)
# Assay: SELEX
# Conditions: 2'-F C and U [2'-F at all C and U]; selected sequence, no individual value; purified native protein; protein details: Quidel; letters built from the parent sequence and the stated change
row,Sequence,selection result
1,GGAGGACGAUGCGGGGCCUAAAGUCAAGUGAUCAUCCCCUGCGUCAGACGACUCGCCCGA [c3-8c],selected
2,GGGAGGACGAUGCGGGUGACUCGAUAUCUUCCAAUCUGUACAUGGUCAGACGACUCGCCCGA [C3c 36],selected

# Tested on: Complement C5 (Rattus norvegicus)
# Assay: SELEX
# Conditions: 2'-F C and U; purified native protein
row,Sequence,selection result
1,GGGAGGACGAUGCGGCGACUACUGGGAAGGGUCGCGAAGUGAGCCCAGACGACUCGCCCGA [RtC5-69],selected
2,GGGAGGACGAUGCGGCGACUACUGGGAGAGUACGCGAUGUGUGCCCAGACGACUCGCCCGA [RtC5-146],selected
3,GGGAGGACGAUGCGGCGAUUACUGGGACAGACUCGCGAUGUGAGCUCAGACGACUCGCCCGA [RtC5-39],selected
4,GGGAGGACGAUGCGGCGAUUACUGGGACAGACUCGCGAUGUGAGCUCAGACGACUCGCCCGA [RtC5-95],selected
5,GGGAGGACGAUGCGGCGAUUACUGGGACGGACUCGCGAUGUGAGCCCAGACGACUCGCCCGA [RtC5-116],selected
6,GGGAGGACGAUGCGGCUUCUGAAGAUUAUUUCGCGAUGUGAACUCCAGACCCCUCAGACGACUCGCCCGA [RtC5-100],selected
7,GGGAGGACGAUGCGGCUUCUGAAGAUUAUUUCGCGAUGUGAACUUCAGACCCCUCAGACGACUCGCCCGA [RtC5-74],selected
8,GGGAGGACGAUGCGGGUCCUCGGGGAAAAUUUCGCGACGUGAACCUCAGACGACUCGCCCGA [RtC5-168],selected
